Some of the results follow.
Legend:
Assay in all cases: log2 fold change, soluble protein after heating vs DMSO (PISA); higher = thermal stabilisation; K562 lysate, 10 uM; active = over 0.2 and 3.5 SD of the protein, either way, in both replicates (recomputed)
[1] = compound: CCCS(=O)(=O)Nc1ccc(F)c(C(=O)c2c[nH]c3ncc(-c4ccc(Cl)cc4)cc23)c1F [vemurafenib]
In short: (§1)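 The values are log-two fold changes in thermal stability compared with solvent controls and come from duplicates. They were obtained by TMTpro 16plex LC-MS/MS, with channel sums equalised, on the supernatant after 21,000xg for 90 min. That supernatant came from crude K562 extract at 1 mg/mL protein treated with 10 μM compound for 30 min, heated for 3 min across 48°C-58°C, pooled and brought to 0.5% NP-40 at 4°C.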

Chains of the proteins cited; added tags and fusions are not shown. Lines headed by an entry give the natural chain unless they say otherwise; changes in a name come on top.
UniProt P0C2W1: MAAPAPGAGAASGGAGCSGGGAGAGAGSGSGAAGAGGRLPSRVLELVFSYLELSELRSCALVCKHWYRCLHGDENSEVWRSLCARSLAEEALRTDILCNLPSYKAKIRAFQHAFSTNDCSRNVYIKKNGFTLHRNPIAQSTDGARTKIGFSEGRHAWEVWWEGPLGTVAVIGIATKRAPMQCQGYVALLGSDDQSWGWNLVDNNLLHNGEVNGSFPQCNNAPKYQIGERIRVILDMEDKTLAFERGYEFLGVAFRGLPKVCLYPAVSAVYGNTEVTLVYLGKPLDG
UniProt Q13045: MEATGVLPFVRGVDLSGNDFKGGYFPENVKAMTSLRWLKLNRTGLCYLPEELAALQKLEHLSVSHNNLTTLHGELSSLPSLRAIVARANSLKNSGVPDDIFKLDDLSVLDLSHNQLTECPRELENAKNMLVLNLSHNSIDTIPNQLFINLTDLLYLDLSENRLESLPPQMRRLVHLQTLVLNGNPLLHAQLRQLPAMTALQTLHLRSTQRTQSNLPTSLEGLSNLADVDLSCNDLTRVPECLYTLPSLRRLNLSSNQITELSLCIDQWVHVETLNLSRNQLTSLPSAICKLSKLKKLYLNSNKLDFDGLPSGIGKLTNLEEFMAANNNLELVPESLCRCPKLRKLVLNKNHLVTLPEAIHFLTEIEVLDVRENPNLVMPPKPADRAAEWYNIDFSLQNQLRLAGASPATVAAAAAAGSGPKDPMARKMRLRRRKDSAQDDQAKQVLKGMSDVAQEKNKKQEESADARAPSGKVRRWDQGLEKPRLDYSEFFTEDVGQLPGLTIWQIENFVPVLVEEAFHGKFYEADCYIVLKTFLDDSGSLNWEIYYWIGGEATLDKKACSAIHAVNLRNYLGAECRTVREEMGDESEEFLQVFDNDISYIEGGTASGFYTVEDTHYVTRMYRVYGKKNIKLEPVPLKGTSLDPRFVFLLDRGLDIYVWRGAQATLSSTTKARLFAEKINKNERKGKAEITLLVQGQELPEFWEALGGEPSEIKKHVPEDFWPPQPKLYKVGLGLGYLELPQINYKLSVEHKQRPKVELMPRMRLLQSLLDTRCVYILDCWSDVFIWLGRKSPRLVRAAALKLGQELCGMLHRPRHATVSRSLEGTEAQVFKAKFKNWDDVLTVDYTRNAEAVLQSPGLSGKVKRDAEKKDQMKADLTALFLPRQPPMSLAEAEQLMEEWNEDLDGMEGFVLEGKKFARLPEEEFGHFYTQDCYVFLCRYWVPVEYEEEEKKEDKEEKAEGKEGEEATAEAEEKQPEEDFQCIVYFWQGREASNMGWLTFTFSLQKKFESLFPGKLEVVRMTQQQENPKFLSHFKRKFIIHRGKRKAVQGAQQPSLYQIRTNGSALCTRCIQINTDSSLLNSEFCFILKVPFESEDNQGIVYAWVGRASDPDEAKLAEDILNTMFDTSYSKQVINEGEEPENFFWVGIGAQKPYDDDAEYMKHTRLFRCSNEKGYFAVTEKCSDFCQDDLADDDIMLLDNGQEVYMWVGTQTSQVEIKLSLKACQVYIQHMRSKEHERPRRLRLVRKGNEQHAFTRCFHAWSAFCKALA
UniProt P0C5J1: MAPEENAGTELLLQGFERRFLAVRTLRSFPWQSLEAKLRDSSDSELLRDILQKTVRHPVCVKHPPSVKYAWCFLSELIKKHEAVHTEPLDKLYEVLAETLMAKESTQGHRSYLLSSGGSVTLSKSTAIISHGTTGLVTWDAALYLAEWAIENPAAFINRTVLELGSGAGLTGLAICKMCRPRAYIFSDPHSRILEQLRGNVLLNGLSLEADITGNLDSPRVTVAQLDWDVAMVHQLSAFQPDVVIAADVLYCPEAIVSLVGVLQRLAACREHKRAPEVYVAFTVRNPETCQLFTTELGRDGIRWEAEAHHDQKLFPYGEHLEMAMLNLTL
UniProt Q9NW38: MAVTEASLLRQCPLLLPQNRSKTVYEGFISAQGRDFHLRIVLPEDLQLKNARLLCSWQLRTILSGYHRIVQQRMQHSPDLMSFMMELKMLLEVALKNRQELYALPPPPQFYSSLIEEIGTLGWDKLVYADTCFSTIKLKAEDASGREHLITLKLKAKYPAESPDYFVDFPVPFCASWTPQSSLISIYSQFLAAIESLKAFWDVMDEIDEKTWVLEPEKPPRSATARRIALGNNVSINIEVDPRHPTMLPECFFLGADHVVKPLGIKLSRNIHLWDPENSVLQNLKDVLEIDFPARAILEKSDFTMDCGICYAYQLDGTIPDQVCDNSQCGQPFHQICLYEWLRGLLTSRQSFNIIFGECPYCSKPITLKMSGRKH
UniProt Q6PJ61: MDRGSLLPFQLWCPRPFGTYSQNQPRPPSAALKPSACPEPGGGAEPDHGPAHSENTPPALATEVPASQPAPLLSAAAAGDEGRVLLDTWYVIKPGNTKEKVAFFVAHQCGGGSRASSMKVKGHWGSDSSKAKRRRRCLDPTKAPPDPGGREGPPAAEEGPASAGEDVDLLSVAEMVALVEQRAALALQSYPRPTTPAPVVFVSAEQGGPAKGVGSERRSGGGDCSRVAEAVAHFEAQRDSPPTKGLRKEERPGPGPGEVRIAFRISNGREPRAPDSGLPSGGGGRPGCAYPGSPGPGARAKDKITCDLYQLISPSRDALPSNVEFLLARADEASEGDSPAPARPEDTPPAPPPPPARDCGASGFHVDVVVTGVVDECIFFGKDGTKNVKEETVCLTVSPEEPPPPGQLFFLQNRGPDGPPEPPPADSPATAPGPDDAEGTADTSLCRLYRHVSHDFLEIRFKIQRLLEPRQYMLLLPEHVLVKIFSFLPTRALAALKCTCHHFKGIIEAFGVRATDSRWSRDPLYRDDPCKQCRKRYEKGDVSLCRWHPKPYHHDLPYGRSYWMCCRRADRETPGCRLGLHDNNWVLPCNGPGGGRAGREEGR
UniProt O15360: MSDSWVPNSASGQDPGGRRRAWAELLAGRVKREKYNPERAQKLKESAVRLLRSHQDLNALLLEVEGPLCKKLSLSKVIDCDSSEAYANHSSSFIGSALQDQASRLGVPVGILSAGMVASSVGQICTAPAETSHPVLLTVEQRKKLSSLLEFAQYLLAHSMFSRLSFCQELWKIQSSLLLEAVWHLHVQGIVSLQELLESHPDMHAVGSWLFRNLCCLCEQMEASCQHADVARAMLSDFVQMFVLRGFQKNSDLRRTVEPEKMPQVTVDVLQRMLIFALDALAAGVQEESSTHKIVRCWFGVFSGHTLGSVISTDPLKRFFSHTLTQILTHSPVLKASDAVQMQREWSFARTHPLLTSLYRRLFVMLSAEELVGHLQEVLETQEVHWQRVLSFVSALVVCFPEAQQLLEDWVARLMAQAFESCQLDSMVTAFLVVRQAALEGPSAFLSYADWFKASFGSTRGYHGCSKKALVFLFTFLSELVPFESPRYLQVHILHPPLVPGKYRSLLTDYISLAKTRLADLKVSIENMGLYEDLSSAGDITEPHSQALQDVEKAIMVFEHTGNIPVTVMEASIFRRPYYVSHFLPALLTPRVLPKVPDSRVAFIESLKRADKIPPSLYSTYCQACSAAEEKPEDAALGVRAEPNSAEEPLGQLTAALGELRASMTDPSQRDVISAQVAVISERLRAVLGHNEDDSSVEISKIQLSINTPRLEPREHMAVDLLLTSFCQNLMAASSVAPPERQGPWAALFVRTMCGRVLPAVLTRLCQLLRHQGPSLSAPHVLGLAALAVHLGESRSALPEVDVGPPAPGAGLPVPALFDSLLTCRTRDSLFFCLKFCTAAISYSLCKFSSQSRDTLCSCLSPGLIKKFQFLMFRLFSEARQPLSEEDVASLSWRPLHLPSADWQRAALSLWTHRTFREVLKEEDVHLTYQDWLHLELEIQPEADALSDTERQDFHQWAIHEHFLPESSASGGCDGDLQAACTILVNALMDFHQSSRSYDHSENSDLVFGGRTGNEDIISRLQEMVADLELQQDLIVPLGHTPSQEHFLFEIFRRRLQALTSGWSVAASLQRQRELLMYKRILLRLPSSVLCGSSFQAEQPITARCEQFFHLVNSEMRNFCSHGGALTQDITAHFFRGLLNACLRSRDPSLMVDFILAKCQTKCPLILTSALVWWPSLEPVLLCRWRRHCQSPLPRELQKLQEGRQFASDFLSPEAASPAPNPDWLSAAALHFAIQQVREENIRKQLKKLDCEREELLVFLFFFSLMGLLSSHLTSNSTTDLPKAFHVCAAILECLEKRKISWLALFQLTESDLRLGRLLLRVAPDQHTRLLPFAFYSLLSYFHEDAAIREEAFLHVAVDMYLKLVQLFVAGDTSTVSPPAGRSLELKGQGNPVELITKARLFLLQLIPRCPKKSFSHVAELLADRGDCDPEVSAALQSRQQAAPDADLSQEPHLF
UniProt Q9Y4F1: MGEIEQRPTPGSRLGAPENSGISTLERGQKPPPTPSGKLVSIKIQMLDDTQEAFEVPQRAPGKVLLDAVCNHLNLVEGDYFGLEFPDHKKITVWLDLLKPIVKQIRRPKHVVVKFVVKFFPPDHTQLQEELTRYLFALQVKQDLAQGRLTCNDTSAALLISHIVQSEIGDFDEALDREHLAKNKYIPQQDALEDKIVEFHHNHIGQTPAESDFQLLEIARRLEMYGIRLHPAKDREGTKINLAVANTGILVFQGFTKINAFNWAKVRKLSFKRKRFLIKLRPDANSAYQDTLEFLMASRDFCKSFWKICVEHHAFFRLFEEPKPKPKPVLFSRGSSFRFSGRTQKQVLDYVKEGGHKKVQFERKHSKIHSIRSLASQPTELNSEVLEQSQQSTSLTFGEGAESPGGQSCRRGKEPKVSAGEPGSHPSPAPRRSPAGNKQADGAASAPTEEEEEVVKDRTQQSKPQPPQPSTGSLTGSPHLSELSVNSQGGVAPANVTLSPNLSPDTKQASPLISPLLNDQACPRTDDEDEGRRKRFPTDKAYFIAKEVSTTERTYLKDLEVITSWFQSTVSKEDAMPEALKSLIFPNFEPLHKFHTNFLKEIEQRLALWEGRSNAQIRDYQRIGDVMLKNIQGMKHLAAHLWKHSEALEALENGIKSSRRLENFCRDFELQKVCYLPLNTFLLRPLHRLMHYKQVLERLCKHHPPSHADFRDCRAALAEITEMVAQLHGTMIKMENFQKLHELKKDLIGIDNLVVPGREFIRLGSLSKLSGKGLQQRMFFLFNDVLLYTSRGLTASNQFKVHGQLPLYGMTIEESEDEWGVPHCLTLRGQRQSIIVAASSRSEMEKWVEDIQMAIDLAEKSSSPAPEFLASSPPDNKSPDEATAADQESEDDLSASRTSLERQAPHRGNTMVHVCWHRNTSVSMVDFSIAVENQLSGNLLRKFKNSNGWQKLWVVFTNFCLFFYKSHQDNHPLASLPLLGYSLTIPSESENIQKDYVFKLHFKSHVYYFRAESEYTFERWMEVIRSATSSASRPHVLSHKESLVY
UniProt O15287: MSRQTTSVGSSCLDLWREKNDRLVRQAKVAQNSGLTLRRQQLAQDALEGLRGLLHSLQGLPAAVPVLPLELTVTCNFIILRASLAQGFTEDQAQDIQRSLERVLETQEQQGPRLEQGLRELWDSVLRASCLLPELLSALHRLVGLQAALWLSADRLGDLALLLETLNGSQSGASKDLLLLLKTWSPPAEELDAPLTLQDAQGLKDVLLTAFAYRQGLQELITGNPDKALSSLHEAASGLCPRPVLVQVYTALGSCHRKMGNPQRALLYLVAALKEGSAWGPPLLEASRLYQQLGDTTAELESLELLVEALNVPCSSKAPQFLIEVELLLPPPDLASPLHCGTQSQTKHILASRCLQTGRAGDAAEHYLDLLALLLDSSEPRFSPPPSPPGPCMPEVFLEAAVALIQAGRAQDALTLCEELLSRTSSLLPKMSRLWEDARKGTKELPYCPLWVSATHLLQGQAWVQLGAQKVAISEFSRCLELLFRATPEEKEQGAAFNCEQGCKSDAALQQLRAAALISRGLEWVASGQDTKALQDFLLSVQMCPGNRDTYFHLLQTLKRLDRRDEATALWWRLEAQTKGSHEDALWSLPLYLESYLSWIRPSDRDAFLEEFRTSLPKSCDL
UniProt Q9H9S5: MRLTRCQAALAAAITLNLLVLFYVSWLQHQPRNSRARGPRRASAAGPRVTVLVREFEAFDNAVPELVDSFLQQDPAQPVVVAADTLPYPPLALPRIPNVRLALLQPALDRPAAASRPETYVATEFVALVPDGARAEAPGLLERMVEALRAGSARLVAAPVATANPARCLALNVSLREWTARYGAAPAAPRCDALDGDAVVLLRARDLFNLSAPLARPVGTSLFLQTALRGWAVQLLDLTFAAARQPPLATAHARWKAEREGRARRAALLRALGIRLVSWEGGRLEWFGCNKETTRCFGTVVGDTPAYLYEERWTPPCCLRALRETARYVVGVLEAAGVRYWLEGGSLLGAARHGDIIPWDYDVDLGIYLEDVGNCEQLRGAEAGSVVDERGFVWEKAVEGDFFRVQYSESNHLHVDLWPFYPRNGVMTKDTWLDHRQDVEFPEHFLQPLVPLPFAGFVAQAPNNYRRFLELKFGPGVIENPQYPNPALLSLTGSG

[2] = compound: CCN(CCCOc1ccc2c(Nc3cc(CC(=O)Nc4cccc(F)c4)[nH]n3)ncnc2c1)CCOP(=O)(O)O [barasertib]
In short: as §1

[3] = compound: CC[C@@H]1C(=O)N(C)c2cnc(Nc3ccc(C(=O)NC4CCN(C)CC4)cc3OC)nc2N1C1CCCC1
In short: as §1

[4] = compound: CCn1c(C(=O)N(C2CC2)C2CC2)cc2c3c(ncn3C)c(Nc3cc(C)n(C)n3)nc21
In short: as §1

[5] = compound: CCn1cc(-c2ccnc3[nH]c(-c4cccc(CN(C)C)c4)cc23)c(-c2ccc(NC(=O)N(C)C)cc2)n1
In short: as §1

[6] = compound: CN1CCC(CNc2ccc3ncc(-c4cccc(OC(F)(F)F)c4)n3n2)CC1
In short: as §1

[7] = compound: CN1CCN(CCOc2cc(OC3CCOCC3)c3c(Nc4c(Cl)ccc5c4OCO5)ncnc3c2)CC1 [saracatinib]
In short: as §1

[8] = compound: CN1CCN(c2nc(C3=C(c4c[nH]c5ccccc45)C(=O)NC3=O)c3ccccc3n2)CC1 [sotrastaurin]
In short: as §1

[9] = compound: CCCS(=O)(=O)Nc1ccc(F)c(C(=O)c2c[nH]c3ncc(Cl)cc23)c1F
In short: as §1

[10] = compound: CC[C@@H]1C(=O)N(C)c2cnc(Nc3ccc(C(=O)N[C@H]4CC[C@H](N5CCN(CC6CC6)CC5)CC4)cc3OC)nc2N1C(C)C [volasertib]
In short: as §1

Measured: log2 fold change

FBRS (UniProt J3KNZ9)
inactive: [1] -0.001 | [2] 0.018 | [3] 0.077 | [4] 0.042 | [5] 0.073 | [6] 0.098 | [7] 0.026 | [8] 0.098

FBXO45 (UniProt P0C2W1)
inactive: [1] -0.064 | [9] 0.088 | [2] 0.031 | [3] -0.077 | [10] -0.04 | [4] 0.062 | [5] -0.002 | [6] 0.037 | [8] 0.028

FLII isoform 2 (UniProt Q13045)
inactive: [1] 0.111 | [9] 0.049 | [3] -0.058 | [10] -0.045

FBRSL1, A0A3B3IRR3
inactive: [1] 0.132 | [2] 0.055 | [3] 0.069 | [4] 0.085 | [5] 0 | [6] -0.061 | [7] -0.028 | [8] -0.039

FAM86B2 (UniProt P0C5J1)
inactive: [1] -0.169 | [9] 0.215 | [2] 0.042 | [10] -0.045 | [4] 0.079

FANCL isoform 2 (UniProt Q9NW38)
inactive: [9] -0.258 | [2] -0.017 | [3] 0.167 | [10] -0.169 | [4] 0.035 | [5] 0.015 | [6] -0.052 | [7] 0.07 | [8] -0.077

FBXO46 (UniProt Q6PJ61)
inactive: [1] -0.034 | [9] 0.051 | [2] 0.068 | [3] 0.031 | [10] -0.024 | [4] 0.022 | [5] -0.027 | [6] 0.073 | [7] -0.009 | [8] -0.011

2 neighbouring records already listed:
FANCL isoform 2 (UniProt Q9NW38)
inactive: [9] -0.258 | [2] -0.017 | [3] 0.167 | [10] -0.169 | [4] 0.035 | [5] 0.015 | [6] -0.052 | [7] 0.07 | [8] -0.077

FBXO46 (UniProt Q6PJ61)
inactive: [1] -0.034 | [9] 0.051 | [2] 0.068 | [3] 0.031 | [10] -0.024 | [4] 0.022 | [5] -0.027 | [6] 0.073 | [7] -0.009 | [8] -0.011

(next part)

FANCA (UniProt O15360)
inactive: [1] -0.018 | [3] -0.099 | [7] -0.039 | [8] 0.176

FARP2 (UniProt O94887)
inactive: [9] -0.402 | [2] 0.345 | [10] -0.131 | [4] -0.023 | [5] -0.275 | [6] 0.155 | [7] -0.1 | [8] 0

FARP1 isoform 2 (UniProt Q9Y4F1)
inactive: [1] 0.041 | [2] -0.193 | [3] -0.05 | [4] -0.068 | [7] 0.037 | [8] -0.098

FAM83H (UniProt Q6ZRV2)
inactive: [1] 0.176 | [9] -0.107 | [3] 0.047 | [10] -0.08 | [5] -0.014 | [6] 0.047

FANCG (UniProt O15287)
inactive: [1] -0.072 | [3] 0.154 | [4] 0.027 | [5] 0.343 | [6] -0.159 | [8] 0.246

FKRP (UniProt Q9H9S5)
inactive: [1] 0.047 | [9] -0.033 | [3] -0.005 | [10] 0.1 | [4] -0.003 | [5] -0.296 | [6] 0.033 | [7] 0.051 | [8] 0.016
